Experimental data reported in patent US10160812B2 (MedImmune, LLC, priority 2014, dated 2018).

Assay: Fmoc solid-phase peptide synthesis; 2-Chlorotrityl chloride resin
Conditions: whole synthesis, scale 0.32 mmol

Substance: (2S,4R)-4-(2-((1R,3R)-1-acetoxy-3-((2S,3S)-2-((2R,4R)-1,4-dimethylpiperidine-2-carboxamido)-N-ethyl-3-methylpentanamido)-4-methylpentyl)thiazole-4-carboxamido)-5-(4-((S)-6-amino-2-(6-(2,5-dioxo-2,5-dihydro-1H-pyrrol-1-yl)hexanamido)hexanamido)phenyl)-2-methylpentanoic acid
- isolated mass: 0.095 g
- isolated yield: 22.48%
